This is an account of results in PubChem BioAssay AID328 (DTP/NCI, 2004).

This experiment deals with BDF1 mice, P388 leukemia ip, median survival T/C. Description: NCI In Vivo Anticancer Drug Screen. Data for tumor model P388 Leukemia (intraperitoneal) in B6D2F1 (BDF1) mice. Conditions: T/C endpoint: median survival time, higher T/C = longer survival. The method, boiled down: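 Mice carrying the transplantable tumour receive compound or vehicle. Survival is followed in each arm, and the treated measure is divided by the vehicle measure.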

Setting [1] is: dose: 100.0 mg/kg/injection, schedule: Q01DX009 (ip), vehicle: saline.
The mark [2] stands for this setting: dose: 200.0 mg/kg/injection, schedule: Q01DX009 (ip), vehicle: saline.
The mark [3] stands for this setting: dose: 3.0 mg/kg/injection, schedule: Q01DX009 (ip), vehicle: DMSO.
Where [4] appears, read: dose: 400.0 mg/kg/injection, schedule: Q01DX010 (ip), vehicle: saline.
The mark [5] stands for this setting: dose: 50.0 mg/kg/injection, schedule: Q01DX009 (ip), vehicle: Klucel (hydroxypropylcellulose) (HPC).

The list does not hold the whole screen: it is rich in T/C values a quarter to a half above the control, in often repeated tests (any T/C) and in doses without a T/C. Other doses and runs of a compound stand elsewhere. T/C gives the treated animals as a percentage of the vehicle group. Some doses have a count of surviving animals in place of a T/C: the source files T/C as zero there, which appears to mark a toxic dose or a test without result, not a measured value. Some doses without a T/C left all or most animals alive at the check, yet need not have been tolerated: the source hardly ever lists a survival T/C far under the control, and the zero likely stands for such cases as well. Counts of survivors are from the toxicity check (mostly the fifth day) where no day follows; animals may have died later. Schedule codes are those of the source, taken here to give the interval after Q, in days (D) or hours (H), and the number of doses after X. For survival time, the PubChem record calls one and a half times the control and up active, and a quarter to a half above the control has no call in these data; cut-offs in other NCI protocols can differ. Some T/C values are followed by the survivors on the day toxicity was checked, most often the fifth; without a count, all were alive then.

`CCCn1cnc2c(=S)nc[nH]c21`: the survivor count is reported as 5 of 6 (dose: 200.0 mg/kg/injection, schedule: Q01DX009 (ip), vehicle: saline with Tween-80) and 5 of 6 (dose: 400.0 mg/kg/injection, schedule: Q01DX009 (ip), vehicle: saline with Tween-80).
In the case of `CC(C)C[C@H](O)C(=O)O`, the T/C is 136 % of control under setting [1] and 135 % of control under setting [2]. Besides, under “dose: 400.0 mg/kg/injection, schedule: Q01DX009 (ip), vehicle: saline”, the survivor count is on record as 1 of 6.
As to `CO[C@H]1C[C@H](O[C@H]2CC[C@]3(C=O)[C@H]4CC[C@]5(C)[C@@H](C6=CC(=O)OC6)CC[C@]5(O)[C@@H]4CC[C@]3(O)C2)O[C@H](C)[C@H]1O[C@@H]1O[C@H](CO)[C@@H](O)[C@H](O)[C@H]1O`, the survivor count runs as follows: (dose: 2.0 mg/kg/injection, schedule: Q01DX009 (ip), vehicle: saline) 2 of 6; (dose: 2.0 mg/kg/injection, schedule: Q01DX010 (ip), vehicle: saline) 2 of 6; (dose: 4.0 mg/kg/injection, schedule: Q01DX010 (ip), vehicle: saline) 0 of 6.
In the case of `CCCN([Si](C)(C)C)[Si](C)(C)C`, for the setting “dose: 400.0 mg/kg/injection, schedule: Q04DX003 (ip), vehicle: saline with Tween-80”, the survivor count was 5 of 6.
With `O=C1N2CCOC2=NC1(c1ccccc1)c1ccccc1`, for the setting “dose: 200.0 mg/kg/injection, schedule: Q01DX009 (ip), vehicle: water”, the survivor count was 9 of 10.
Take `CCC(/C=C/C(C)C1CCC2C3CC=C4CC(O)CCC4(C)C3CCC12C)C(C)C` (centres undefined) (tested in a mixture with another compound): the survivor count by setting is: (dose: 150.0 mg/kg/injection, schedule: Q01DX009 (ip), vehicle: saline) 1 of 6; (dose: 150.0 mg/kg/injection, schedule: Q04DX003 (ip), vehicle: saline) 5 of 6; (dose: 225.0 mg/kg/injection, schedule: Q01DX009 (ip), vehicle: saline) 0 of 6; (dose: 225.0 mg/kg/injection, schedule: Q04DX003 (ip), vehicle: saline) 4 of 6; (dose: 335.0 mg/kg/injection, schedule: Q01DX009 (ip), vehicle: saline) 0 of 6; (dose: 335.0 mg/kg/injection, schedule: Q04DX003 (ip), vehicle: saline) 2 of 6.
Consider `N#C[SH2+].N#C[SH2+].N#C[SH2+].N#C[SH2+].[Cu+2].c1ccc(C[P+](c2ccccc2)(c2ccccc2)c2ccccc2)cc1`, for which the survivor count by setting is: (dose: 200.0 mg/kg/injection, schedule: Q01DX001 (ip), vehicle: saline with Tween-80) 1 of 6; (dose: 400.0 mg/kg/injection, schedule: Q01DX001 (ip), vehicle: saline with Tween-80) 0 of 6.
Take `CC(C#N)Oc1cccc2ccccc12` (centres undefined): the T/C was 130 % of control (dose: 2.0 mg/kg/injection, schedule: Q01DX009 (ip), vehicle: DMSO) and 130 % of control under setting [3]. Further, the survivor count reads like this: under setting [3], 6 of 6; (dose: 4.5 mg/kg/injection, schedule: Q01DX009 (ip), vehicle: DMSO) 6 of 6; (dose: 50.0 mg/kg/injection, schedule: Q01DX009 (ip), vehicle: DMSO) 4 of 5; (dose: 100.0 mg/kg/injection, schedule: Q01DX009 (ip), vehicle: DMSO) 2 of 6; (dose: 200.0 mg/kg/injection, schedule: Q01DX009 (ip), vehicle: DMSO) 2 of 6; (dose: 200.0 mg/kg/injection, schedule: Q04DX003 (ip), vehicle: DMSO) 5 of 6. Further, the survivor count reads like this: (dose: 400.0 mg/kg/injection, schedule: Q01DX009 (ip), vehicle: DMSO) 1 of 6; (dose: 400.0 mg/kg/injection, schedule: Q04DX003 (ip), vehicle: DMSO) 6 of 6.
As to `CC(=O)O[C@@H]1[C@H]2O[C@H]2[C@H]2O[C@@]2(COC(=O)c2ccccc2)[C@H]1OC(C)=O`, the survivor count (dose: 50.0 mg/kg/injection, schedule: Q01DX010 (ip), vehicle: steroid suspending solution) is 6 of 6.
On to `CN1Cc2c(ccc3c2OCO3)[C@@H]2[C@H](O)Cc3cc4c(cc3[C@@H]21)OCO4`, for which the T/C (dose: 200.0 mg/kg/injection, schedule: Q01DX010 (ip), vehicle: saline) is 140 % of control. Moreover, the survivor count under setting [4] is 6 of 6.
Turning to `OCC1OCC(O)C(O)C1O` (centres undefined), the T/C was 130 % of control (dose: 100.0 mg/kg/injection, schedule: Q01DX010 (ip), vehicle: saline) and 130 % of control under setting [4]. In addition, the survivor count by setting is: (dose: 256.0 mg/kg/injection, schedule: Q03HX024 (ip), vehicle: saline) 6 of 6; (dose: 512.0 mg/kg/injection, schedule: Q04DX003 (ip), vehicle: saline) 6 of 6.
Take `O=C1CCCC(=O)C1C(C[N+](=O)[O-])c1ccccc1` (centres undefined): the T/C under setting [5] was 128 % of control.
For `CC1=CC2=C(C=O)C(=O)[C@](C)(O)[C@@H](O)C2=CO1`, the T/C is 130 % of control (dose: 50.0 mg/kg/injection, schedule: Q04DX003 (ip), vehicle: saline with Tween-80); 147 % of control (dose: 66.0 mg/kg/injection, schedule: Q04DX003 (ip), vehicle: saline with Tween-80); 133 % of control (dose: 100.0 mg/kg/injection, schedule: Q04DX003 (ip), vehicle: saline with Tween-80); 133 % of control [5 of 6 alive] (dose: 150.0 mg/kg/injection, schedule: Q04DX003 (ip), vehicle: saline with Tween-80). For the same molecule, the survivor count (dose: 150.0 mg/kg/injection, schedule: Q04DX003 (ip), vehicle: Klucel (hydroxypropylcellulose) (HPC)) is reported as 3 of 6.
With `COc1ccc2c(c1)CCC1=C2C=C[P+]1(C)C`, the survivor count (dose: 50.0 mg/kg/injection, schedule: Q01DX009 (ip), vehicle: saline with Tween-80) was 2 of 6.
Regarding `CCOC(=O)c1ccc(NC(=O)Nc2nncs2)cc1`, the T/C runs as follows: (dose: 25.0 mg/kg/injection, schedule: Q01DX009 (ip), vehicle: distilled water + Tween-80) 136 % of control; (dose: 50.0 mg/kg/injection, schedule: Q01DX009 (ip), vehicle: distilled water + Tween-80) 136 % of control. Moreover, the survivor count (dose: 100.0 mg/kg/injection, schedule: Q01DX009 (ip), vehicle: distilled water + Tween-80) was 6 of 6; the survivor count (dose: 200.0 mg/kg/injection, schedule: Q01DX009 (ip), vehicle: distilled water + Tween-80) is given as 6 of 6; the survivor count (dose: 400.0 mg/kg/injection, schedule: Q01DX009 (ip), vehicle: distilled water + Tween-80) was 4 of 6.
Regarding `CC1(O)Cn2c(nc3nccnc32)S1` (centres undefined), the survivor count under setting [1] is listed as 4 of 6; the survivor count under setting [2] was 0 of 6; the survivor count (dose: 200.0 mg/kg/injection, schedule: Q04DX003 (ip), vehicle: saline) is 6 of 6; the survivor count (dose: 400.0 mg/kg/injection, schedule: Q04DX003 (ip), vehicle: saline) is given as 0 of 6.
As for `CCCCC(CC)CC1CCCCC1O` (centres undefined), the survivor count (dose: 400.0 mg/kg/injection, schedule: Q01DX009 (ip), vehicle: Klucel (hydroxypropylcellulose) (HPC)) is recorded as 2 of 6.
`O=[N+]([O-])c1cccc(C=Nc2cccc(C(F)(F)F)c2)c1`: the survivor count is, setting by setting: (dose: 12.5 mg/kg/injection, schedule: Q01DX009 (ip), vehicle: Klucel (hydroxypropylcellulose) (HPC)) 6 of 6; (dose: 25.0 mg/kg/injection, schedule: Q01DX009 (ip), vehicle: Klucel (hydroxypropylcellulose) (HPC)) 6 of 6; under setting [5], 6 of 6.
Regarding `CN(C)C(CC(=O)c1ccccc1)C(=O)O` (centres undefined), under “dose: 100.0 mg/kg/injection, schedule: Q04DX003 (ip), vehicle: saline sonified”, the T/C was 125 % of control. Moreover, the survivor count (dose: 200.0 mg/kg/injection, schedule: Q04DX003 (ip), vehicle: saline sonified) is given as 0 of 6.
Regarding `O=C(C1CC2CCC1C2)C1CC2CCC1C2` (centres undefined), the T/C (dose: 200.0 mg/kg/injection, schedule: Q01DX009 (ip), vehicle: other) is 128 % of control. Where the note is “dose: 400.0 mg/kg/injection, schedule: Q01DX009 (ip), vehicle: other”, the survivor count is listed as 6 of 6.
